The text below walks through data of the supplement of paper PMC3334620.

In all, about 33,000 sequences were measured (“E-score (-0.5 to 0.5)”: median about -0.0014, highest 2% from about 0.25 on). Some of the results follow.

This experiment has as its target T1, Cad1 (UniProt P24813).
T1 sequence: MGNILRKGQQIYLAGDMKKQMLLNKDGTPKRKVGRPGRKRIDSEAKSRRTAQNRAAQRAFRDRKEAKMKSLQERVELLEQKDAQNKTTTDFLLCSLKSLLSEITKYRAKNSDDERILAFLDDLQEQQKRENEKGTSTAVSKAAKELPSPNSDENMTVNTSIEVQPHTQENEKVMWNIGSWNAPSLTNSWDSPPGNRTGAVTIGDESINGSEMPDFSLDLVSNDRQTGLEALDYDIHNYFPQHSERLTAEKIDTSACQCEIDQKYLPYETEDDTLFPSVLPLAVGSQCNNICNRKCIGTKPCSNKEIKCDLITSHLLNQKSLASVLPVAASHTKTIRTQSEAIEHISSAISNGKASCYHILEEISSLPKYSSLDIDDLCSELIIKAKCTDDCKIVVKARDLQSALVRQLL
The experiment can be described thus: PBM E-score (8-mer binding enrichment) (E-score (-0.5 to 0.5)); higher = stronger / more preferred TF binding. As to conditions: protein concentration: 100 nM; construct: GST-full length. The protocol: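 Universal 'all 10-mer' protein binding microarrays (Agilent AMADID 015681) probed with GST-tagged S. cerevisiae TFs (full-length or DBD) made by in vitro transcription/translation (PURExpress), about 100-200 nM. Bound TF was detected with fluorescent anti-GST. Each ungapped 8-mer (which stands for itself and its reverse complement) is scored by the PBM enrichment score (E-score), a modified Wilcoxon-Mann-Whitney statistic from -0.5 to +0.5, computed with the Universal PBM Analysis Suite. Scale: above 0.35 generally sequence-specific binding.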
For the sequence CAAGTAGA, the “PBM E-score” value is -0.186.
Then CCGGCAAC, with 0.00677; and GCGGCGGA, with 0.112; and ATGACTGG, with -0.193.
Take CCGTCCCG: the “PBM E-score” value is -0.0572.
With GAGCTATC, the “PBM E-score” value was -0.139.
For the sequence CCTTATGC, the “PBM E-score” value was -0.0125.
For GAGATGGC, the “PBM E-score” value is 0.19.
On to GTCCAGAA, for which the “PBM E-score” value turned out to be 0.0196.
Next, AAAATGGC: -0.0252.
Regarding CGTCACCC, the “PBM E-score” value was -0.15.
In the case of CATAGCGA, the “PBM E-score” value turned out to be 0.051.
Next, GTCCCTGA: -0.17; AGGTGGGG: -0.0628.
Next, CACAGTTC: 0.0926; CACTTTCG: 0.122; CCATTTAC: -0.0295.
Take ATTTAGCC: the “PBM E-score” value came out at 0.0331.
With AAGGGATT, the “PBM E-score” value was -0.0286.
For the sequence ACTGAGGA, the “PBM E-score” value is -0.223.
Turning to ACCCAGCG, the “PBM E-score” value is -0.168.
AAAGAGGT: the “PBM E-score” value worked out at 0.00147.
On to ACCACTAT, for which the “PBM E-score” value was 0.0199.
As for ATTTACGG, the “PBM E-score” value came to 0.117.
As for GATACAAC, the “PBM E-score” value stood at 0.147.
In the case of AGCAGATA, the “PBM E-score” value is -0.0464.
On to CTTGCATA, for which the “PBM E-score” value was 0.0652.
GACTCAAC: the “PBM E-score” value stood at 0.0863.
In the case of ATTTTGAA, the “PBM E-score” value was 0.15.
As for CACCGTCG, the “PBM E-score” value was -0.0093.
For TGCATGAA, the “PBM E-score” value was 0.201.
On to CCACTAAC, for which the “PBM E-score” value is 0.105.
As for AGAAGCAG, the “PBM E-score” value is -0.0954.
Turning to CATAGTGG, the “PBM E-score” value is -0.0395.
As for TATCGCGA, the “PBM E-score” value amounted to 0.259.
Next, ACCAACTG: -0.0938.
For the sequence AGATCGTC, the “PBM E-score” value is -0.114.
CTCTGGTA: the “PBM E-score” value stood at 0.00844.
Regarding AGCCGTGG, the “PBM E-score” value was -0.135.
Next, ACAAGGTG: -0.00821.
With GACGAGGA, the “PBM E-score” value was found to be 0.121.
With GACATTAC, the “PBM E-score” value turned out to be 0.171.
Next, AGGCCGAA: -0.0603.
Then GGCGATAA, with -0.0679; and CACATCCC, with -0.0533.
With ATGATGAA, the “PBM E-score” value was 0.216.
As for ACACAGGG, the “PBM E-score” value amounted to 0.0433.
In the case of GGGCTTGA, the “PBM E-score” value is -0.109.
Take CCAATTGC: the “PBM E-score” value is -0.114.
Next, GCCGAACA: 0.0432; TTCAACAA: 0.124.
As for CCAACTAG, the “PBM E-score” value was found to be 0.0684.
Then TGCTGTAA, with -0.0294; and CATGGCAA, with -0.0412.
Take AACCTGAA: the “PBM E-score” value is -0.192.
Then AAATTATT, with 0.181; and AAGTAGAC, with 0.00908.
Consider CCCGAATA, for which the “PBM E-score” value amounted to 0.0801.
Regarding GATAGAGC, the “PBM E-score” value came out at 0.0529.
As to CGTGGGAA, the “PBM E-score” value was -0.12.
As to GTATTAAC, the “PBM E-score” value is -0.0392.
For AAAGTTCA, the “PBM E-score” value stood at 0.0815.
Turning to ACTTTACG, the “PBM E-score” value is -0.0406.
Consider TGCCAAAA, for which the “PBM E-score” value was determined as 0.068.
With CGGCACGC, the “PBM E-score” value was -0.0478.
On to ACCTTGCT, for which the “PBM E-score” value was -0.119.
Turning to ATATGGAT, the “PBM E-score” value came out at 0.212.
Turning to TAGCGGAA, the “PBM E-score” value was -0.149.
For the sequence ATCCACTG, the “PBM E-score” value was -0.127.
Next, ACAGCTAG: -0.0773; CTGTCTTC: -0.0664.
In the case of CAAAGCAC, the “PBM E-score” value was -0.138.
As to ACTTCGGG, the “PBM E-score” value was -0.00844.
As to AAAGTCCC, the “PBM E-score” value was -0.0531.
Next, GGGGATCA: -0.181; CAACAGCC: 0.0927; CCGGTACA: 0.0785.
Turning to ATGTCATC, the “PBM E-score” value was 0.0733.
In the case of CACGAAGA, the “PBM E-score” value turned out to be 0.0416.
Turning to ACAGGTGC, the “PBM E-score” value is -0.178.
Turning to ACTGATGG, the “PBM E-score” value came out at 0.0288.
As for AGTGCCAG, the “PBM E-score” value is -0.154.
Next, ACGGGCGA: -0.108; ACGTAGTA: 0.119; GACGAATA: 0.177.
With CGTACAGA, the “PBM E-score” value was -0.00856.
